Measurements as given in paper PMC9462472.
No constants are given. Whether binding was seen depends on the method and setting. In cells and extracts the contact can be indirect. Some binding calls cover weakened binding; strength is not graded here.

Biological target: T1, dynamin-2 (mouse (endogenous in C2C12 myotubes and mouse muscle)) (UniProt P39054)
T1 sequence: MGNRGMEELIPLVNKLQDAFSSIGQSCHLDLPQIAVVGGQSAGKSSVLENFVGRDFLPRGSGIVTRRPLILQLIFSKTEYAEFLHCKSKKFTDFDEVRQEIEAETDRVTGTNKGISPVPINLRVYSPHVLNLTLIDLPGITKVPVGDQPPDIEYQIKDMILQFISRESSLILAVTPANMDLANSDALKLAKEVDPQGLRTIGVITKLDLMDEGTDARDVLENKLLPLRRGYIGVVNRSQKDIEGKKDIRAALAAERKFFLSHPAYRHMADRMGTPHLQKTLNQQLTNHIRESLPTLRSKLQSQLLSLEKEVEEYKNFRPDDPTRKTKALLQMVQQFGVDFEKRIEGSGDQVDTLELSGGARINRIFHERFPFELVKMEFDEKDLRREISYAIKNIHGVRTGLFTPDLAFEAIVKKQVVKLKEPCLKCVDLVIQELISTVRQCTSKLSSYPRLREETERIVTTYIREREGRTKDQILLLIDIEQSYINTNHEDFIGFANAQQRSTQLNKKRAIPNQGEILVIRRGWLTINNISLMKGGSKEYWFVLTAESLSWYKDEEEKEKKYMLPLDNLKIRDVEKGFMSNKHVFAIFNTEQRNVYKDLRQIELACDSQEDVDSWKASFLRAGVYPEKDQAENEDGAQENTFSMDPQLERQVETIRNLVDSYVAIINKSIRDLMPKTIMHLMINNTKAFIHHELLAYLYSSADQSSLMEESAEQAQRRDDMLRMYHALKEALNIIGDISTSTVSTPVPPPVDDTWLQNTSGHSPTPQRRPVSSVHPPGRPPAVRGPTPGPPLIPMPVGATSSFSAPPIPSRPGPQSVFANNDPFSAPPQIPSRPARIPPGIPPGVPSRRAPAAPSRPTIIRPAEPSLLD
Assay: co-IP; endogenous proteins in lysates of differentiated C2C12 myotubes, soleus and triceps; IP with anti-SPEG or anti-DNM2 antibody at 4°C for 12 to 24 hours, Dynabead Protein G beads, washed 3 times with co-IP buffer with 0.1% CHAPS; immunoblot

binding: binds
Substance: Striated preferentially expressed protein kinase, SPEG-β isoform (from UniProt Q62407-1 1-3262)
